Patent US20030220252A1, “Method for treating a patient with neoplasia by treatment with a gonadotropin releasing hormone analog” (priority 1998, published 2003)
Some results were stated once for a whole list of compounds, not compound by compound. For some of these results: At least one compound was matched to its structure with a doubt left.

Key:
[1] = test system: cGMP-PDE; test: cGMP-PDE inhibition assay, enzyme purified from HT-29 tumor cells; assay type: biochemical, human
[2] = test system: PDE peak B (novel cGMP-specific PDE); test: cGMP hydrolysis by PDE peak B isolated from SW-480 cells; assay type: biochemical, human

Structure (SMILES)	increase of IC50 against peak B compared with peak A [2]	further results
COc1cc(C=C2C(C)=C(CC(=O)O)c3cc(F)ccc32)cc(OC)c1OC [Compound B, (Z)-5-Fluoro-2-methyl-1-(3,4,5-trimethoxybenzylidene)-3-acetic acid]	–	inhibition of cGMP-PDE at a dose of 20 μM ([1]; 20 μM): greater than 50%
CCCOc1ccccc1-c1nc2nn[nH]c2c(=O)[nH]1 [Zaprinast]	> 50 fold	–
O=C([O-])C1CCN(c2nc(NCc3ccc4c(c3)OCO4)c3cc(Cl)ccc3n2)CC1.[Na+] [Compound E4021]	> 50 fold	–
COc1cc(/C=C2/C(C)=C(CC(=O)NCc3ccccc3)c3cc(F)ccc32)cc(OC)c1OC [Compound E, (Z)-5-Fluoro-2-methyl-1-(3,4,5-trimethoxybenzylidene)-3-indenylacetamide, N-benzyl]	–	% Inhibition at 10 μM (cGMP PDE) ([1]; 10 μM): greater than 50%
